Counter-ions that a name gives are not always drawn. Where a SMILES comes first, the peptide text is derived from it.

The subject of the series is human keratinocytes (HaCaT). The settings on record: IC50 on HaCaT divided by mean MIC on S. aureus strains.
On to `CC[C@H](C)[C@H](NC(=O)[C@H](CCCCN)NC(=O)[C@H](CCCCN)NC(=O)[C@H](Cc1ccccc1)NC(=O)[C@H](CC(C)C)NC(=O)[C@H](CCCCN)NC(=O)[C@H](Cc1c[nH]c2ccccc12)NC(=O)[C@@H](N)CCCCN)C(=O)NCC(=O)N[C@@H](C)C(=O)N[C@H](C(=O)N[C@@H](CC(C)C)C(=O)N[C@@H](CCCCN)C(=O)N[C@H](C(=O)N[C@@H](CC(C)C)C(N)=O)C(C)C)C(C)C` [CAMEL AcO^−] (H-KWKLFKKIGAVLKVL-NH2; N-terminus assumed), for which the “Selectivity index (IC50/MIC)” value is recorded as at least 0.97.

`CC[C@H](C)[C@H](NC(=O)[C@H](CCCCN)NC(=O)[C@H](CCCCN)NC(=O)[C@H](Cc1ccccc1)NC(=O)[C@H](CC(C)C)NC(=O)[C@H](CCCCN)NC(=O)[C@H](Cc1c[nH]c2ccccc12)NC(=O)[C@@H](N)CCCCN)C(=O)NCC(=O)N[C@@H](C)C(=O)N[C@H](C(=O)N[C@@H](CC(C)C)C(=O)N[C@@H](CCCCN)C(=O)N[C@H](C(=O)N[C@@H](CC(C)C)C(N)=O)C(C)C)C(C)C` [CAMEL Cl^−] (H-KWKLFKKIGAVLKVL-NH2; N-terminus assumed): the “Selectivity index (IC50/MIC)” value is listed as at least 1.25.

As for `CC[C@H](C)[C@H](NC(=O)[C@H](CCCCN)NC(=O)[C@H](CCCCN)NC(=O)[C@H](Cc1ccccc1)NC(=O)[C@H](CC(C)C)NC(=O)[C@H](CCCCN)NC(=O)[C@H](Cc1c[nH]c2ccccc12)NC(=O)[C@@H](N)CCCCN)C(=O)NCC(=O)N[C@@H](C)C(=O)N[C@H](C(=O)N[C@@H](CC(C)C)C(=O)N[C@@H](CCCCN)C(=O)N[C@H](C(=O)N[C@@H](CC(C)C)C(N)=O)C(C)C)C(C)C` [CAMEL TFA^−] (H-KWKLFKKIGAVLKVL-NH2; N-terminus assumed), the “Selectivity index (IC50/MIC)” value is recorded as at least 0.95.

In the case of `CC[C@H](C)[C@H](NC(=O)[C@@H](NC(=O)[C@H](CO)NC(=O)[C@H](C)NC(=O)[C@@H](NC(=O)[C@H](CCCCN)NC(=O)[C@H](CCCCN)NC(=O)[C@@H](NC(=O)[C@@H](NC(=O)[C@H](CC(=O)O)NC(=O)[C@H](Cc1ccccc1)NC(=O)[C@H](CC(C)C)NC(=O)CN)C(C)C)[C@@H](C)CC)C(C)C)C(C)C)C(=O)NCC(=O)NCC(=O)N[C@@H](CC(C)C)C(N)=O` [Citropin 1.1 AcO^−] (H-GLFDVIKKVASVIGGL-NH2; N-terminus assumed), the “Selectivity index (IC50/MIC)” value turned out to be 0.44.

On to `CC[C@H](C)[C@H](NC(=O)[C@@H](NC(=O)[C@H](CO)NC(=O)[C@H](C)NC(=O)[C@@H](NC(=O)[C@H](CCCCN)NC(=O)[C@H](CCCCN)NC(=O)[C@@H](NC(=O)[C@@H](NC(=O)[C@H](CC(=O)O)NC(=O)[C@H](Cc1ccccc1)NC(=O)[C@H](CC(C)C)NC(=O)CN)C(C)C)[C@@H](C)CC)C(C)C)C(C)C)C(=O)NCC(=O)NCC(=O)N[C@@H](CC(C)C)C(N)=O` [Citropin 1.1 Cl^−] (H-GLFDVIKKVASVIGGL-NH2; N-terminus assumed), for which the “Selectivity index (IC50/MIC)” value worked out at 0.41.

In the case of `CC[C@H](C)[C@H](NC(=O)[C@@H](NC(=O)[C@H](CO)NC(=O)[C@H](C)NC(=O)[C@@H](NC(=O)[C@H](CCCCN)NC(=O)[C@H](CCCCN)NC(=O)[C@@H](NC(=O)[C@@H](NC(=O)[C@H](CC(=O)O)NC(=O)[C@H](Cc1ccccc1)NC(=O)[C@H](CC(C)C)NC(=O)CN)C(C)C)[C@@H](C)CC)C(C)C)C(C)C)C(=O)NCC(=O)NCC(=O)N[C@@H](CC(C)C)C(N)=O` [Citropin 1.1 TFA^−] (H-GLFDVIKKVASVIGGL-NH2; N-terminus assumed), the “Selectivity index (IC50/MIC)” value is on record as 0.23.

Consider `CC[C@H](C)[C@H](NC(=O)CNC(=O)[C@H](CO)NC(=O)[C@H](CC(C)C)NC(=O)[C@@H](NC(=O)[C@H](CCCNC(=N)N)NC(=O)CNC(=O)[C@@H](NC(=O)[C@H](CC(C)C)NC(=O)[C@@H]1CCCN1C(=O)[C@H](CC(C)C)NC(=O)[C@@H](N)Cc1ccccc1)[C@@H](C)CC)C(C)C)C(=O)N[C@@H](CC(C)C)C(N)=O` [Temporin A Cl^−] (H-FLPLIGRVLSGIL-NH2; N-terminus assumed), for which the “Selectivity index (IC50/MIC)” value worked out at 0.60.

The values are drawn from paper PMC5917001, “Counter-ion effect on antistaphylococcal activity and cytotoxicity of selected antimicrobial peptides” (Amino Acids, 2018).
